Assay results from patent publication US12018016B2, “Aryl sulfonyl (hydroxy) piperidines as CCR6 inhibitors” (CHEMOCENTRYX, INC., priority 2021, dated 2024).

Protein sequences, listed by entry. Tags and fused reporters are not part of them.
UniProt P51684, whole entry: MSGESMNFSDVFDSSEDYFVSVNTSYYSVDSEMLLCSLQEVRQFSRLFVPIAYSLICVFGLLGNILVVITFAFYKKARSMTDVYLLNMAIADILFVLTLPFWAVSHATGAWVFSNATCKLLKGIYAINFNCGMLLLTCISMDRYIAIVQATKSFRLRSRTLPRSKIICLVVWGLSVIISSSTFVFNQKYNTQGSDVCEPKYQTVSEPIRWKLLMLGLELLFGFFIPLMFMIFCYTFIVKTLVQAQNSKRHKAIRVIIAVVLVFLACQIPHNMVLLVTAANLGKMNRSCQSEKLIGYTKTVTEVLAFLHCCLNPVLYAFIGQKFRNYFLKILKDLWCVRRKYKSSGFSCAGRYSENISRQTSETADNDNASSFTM

Biological target: human CCR6 (Homo sapiens, UniProt P51684)
Assay: Migration assay (chemotaxis, ChemoTX)
Details: read-out: Potency (IC50 value in the migration assay); hCCR6-transfected Ba/F3 cells in human serum, migration to recombinant human CCL20 10 nM, 37° C. 45 minutes
Text: A chemotaxis assay can be used to determine the efficacy of potential receptor antagonists at blocking the migration mediated through chemokine receptors, such as CCR6. This assay is routinely performed using the ChemoTX® microchamber system with a 5-μm pore-sized polycarbonate membrane. Chemokine receptor-expressing cells are required for such an assay. In this case, Ba/F3 cells (Palacios et al., Nature, 309:126, 1984) transfected with the gene for human CCR6 under control of the CMV promotor were used. To begin such an assay, hCCR6-transfected Ba/F3 cells are first grown for 24 hr in medium supplemented with sodium butyrate, which increases CCR6 transcription via the CMV promotor. The prepared Ba/F3 cells, are collected by centrifugation at 400×g at room temperature, then suspended at 4 million/ml in human serum. The compound being tested is serially diluted from a maximum final concentration of 1 μM (or an equivalent volume of its solvent (DMSO)) and is then added to the cell/serum mixture. Separately, recombinant human CCL20 (MIP-3α/LARC) at its EC50 concentration (10 nM) is placed in the lower wells of the ChemoTX® plate. […] The amount of fluorescence, corresponding to the number of migrated cells, is measured using a Spectrafluor Plus plate reader (TECAN, San Jose, CA).

SMILES: O=c1[nH]ncc2ncc(-c3ccc(S(=O)(=O)N4CC[C@@H](Nc5ccc(C(F)(F)F)cn5)[C@@H](O)C4)cc3)cc12
- IC50: < 1 nM

SMILES: O=S(=O)(c1ccc(-c2cnc3[nH]ccc3c2)cc1)N1CC[C@@H](Nc2ccc(C(F)(F)F)cn2)[C@@H](O)C1
- IC50: < 1 nM

The match of structure and compound is tentative.
